Measured values: doi:10.1101/2024.06.27.600789
No constants are given. Whether binding was seen depends on the method and setting. For part of these data: In cells and extracts the contact can be indirect. Some results given as binding are weak or reduced against the parent protein; the word gives no strength. Each block holds one substance with its values, some of them ahead of it.

Amino acid sequences for entries named in this document (tags omitted). A change or cut given only in a name is not applied to a line headed by its entry. Residues count along the entry.
UniProt Q9UHB6, residues 161-759: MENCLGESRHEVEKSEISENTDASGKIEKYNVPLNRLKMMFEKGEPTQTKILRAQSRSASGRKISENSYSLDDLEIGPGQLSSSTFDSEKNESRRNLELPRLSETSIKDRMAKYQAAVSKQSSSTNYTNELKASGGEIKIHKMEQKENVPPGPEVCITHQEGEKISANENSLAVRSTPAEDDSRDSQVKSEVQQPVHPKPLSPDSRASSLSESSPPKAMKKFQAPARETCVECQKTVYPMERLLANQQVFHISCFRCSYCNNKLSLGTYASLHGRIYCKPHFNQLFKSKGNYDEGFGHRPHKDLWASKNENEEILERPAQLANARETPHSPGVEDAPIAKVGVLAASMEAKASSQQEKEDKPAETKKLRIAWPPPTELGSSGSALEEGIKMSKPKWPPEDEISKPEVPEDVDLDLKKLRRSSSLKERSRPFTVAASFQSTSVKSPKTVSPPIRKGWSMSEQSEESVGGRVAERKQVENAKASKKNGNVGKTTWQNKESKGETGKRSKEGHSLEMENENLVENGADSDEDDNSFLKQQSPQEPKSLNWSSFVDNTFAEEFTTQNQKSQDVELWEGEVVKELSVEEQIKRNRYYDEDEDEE
UniProt Q9UL25: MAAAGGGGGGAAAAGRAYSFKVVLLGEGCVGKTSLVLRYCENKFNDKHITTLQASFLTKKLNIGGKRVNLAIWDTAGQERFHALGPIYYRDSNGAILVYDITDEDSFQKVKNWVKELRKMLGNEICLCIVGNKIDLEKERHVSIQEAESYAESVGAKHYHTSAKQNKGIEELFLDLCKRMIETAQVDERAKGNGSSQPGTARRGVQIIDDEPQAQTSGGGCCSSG

What was measured:
[1] = target: StrepII-EPLINα WT (human) (UniProt Q9UHB6); assay: pull-down
[2] = target: Rab21 fused to the V1 half of Venus (pDEST-Rab21-V1) (UniProt Q9UL25); assay: split reporter
[3] = target: GppNHp-loaded recombinant Rab21, fluorescently labelled (UniProt Q9UL25); assay: MST

binding [1]: binds
Substance: ARPC1B, a subunit of the ARP2/3 complex (from UniProt O15143 1-372)

binding [2]: binds
Substance: EPLINα fused to the V2 half of Venus (pDEST-V2-EPLINα) (from UniProt Q9UHB6-2 1-599)

binding [3]: binds
Substance: GST-tagged EPLINα (from UniProt Q9UHB6-2 1-599)
